These are yes or no findings as the source states them, for the method shown. In cells and extracts the contact can be indirect. A yes stands for co-enrichment or nearness to the bait. Other partners may have been found.
Biological target: Reticulon 3 (rat (endogenous in NRVCs)) (UniProt Q6RJR6)
Experiment: affinity purification with mass spectrometry; RTN3 immunoprecipitation from cardiomyocytes, LC-MS/MS; IgG immunoprecipitation as negative control

Amino acid sequences for entries named in this document (tags omitted). A change or cut given only in a name is not applied to a line headed by its entry.
UniProt Q6RJR6: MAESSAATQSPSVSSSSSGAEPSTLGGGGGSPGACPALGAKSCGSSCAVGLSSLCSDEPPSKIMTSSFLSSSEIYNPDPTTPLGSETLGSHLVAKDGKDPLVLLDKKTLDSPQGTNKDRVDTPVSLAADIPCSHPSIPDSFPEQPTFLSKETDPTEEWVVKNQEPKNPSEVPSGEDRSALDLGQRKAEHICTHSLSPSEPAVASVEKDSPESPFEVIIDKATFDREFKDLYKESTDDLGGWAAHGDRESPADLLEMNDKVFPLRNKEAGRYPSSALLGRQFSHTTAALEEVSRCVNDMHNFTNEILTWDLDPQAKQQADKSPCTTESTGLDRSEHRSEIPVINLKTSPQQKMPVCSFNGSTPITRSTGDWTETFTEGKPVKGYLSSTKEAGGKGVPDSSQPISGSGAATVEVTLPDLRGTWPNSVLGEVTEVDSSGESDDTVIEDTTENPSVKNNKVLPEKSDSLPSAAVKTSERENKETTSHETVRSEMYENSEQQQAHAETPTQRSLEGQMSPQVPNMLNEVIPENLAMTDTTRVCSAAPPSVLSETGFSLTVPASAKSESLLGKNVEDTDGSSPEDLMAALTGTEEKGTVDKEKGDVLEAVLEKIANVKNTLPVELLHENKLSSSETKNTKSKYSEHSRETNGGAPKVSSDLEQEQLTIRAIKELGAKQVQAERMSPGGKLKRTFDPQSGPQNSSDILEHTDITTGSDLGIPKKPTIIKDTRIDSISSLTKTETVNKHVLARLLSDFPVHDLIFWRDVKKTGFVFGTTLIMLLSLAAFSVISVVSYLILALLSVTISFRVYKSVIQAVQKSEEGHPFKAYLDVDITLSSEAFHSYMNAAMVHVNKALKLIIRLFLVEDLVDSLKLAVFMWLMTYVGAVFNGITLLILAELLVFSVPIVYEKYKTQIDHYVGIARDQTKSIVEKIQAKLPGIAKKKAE

B1: Fatty Acid Binding Protein 5 (protein, UniProt P55053 1-135)
chain: MASLKDLEGKWRLVESHGFEDYMKELGVGLALRKMGAMAKPDCIITLDGNNLTVKTESTVKTTVFSCTLGEKFDETTADGRKTETVCTFTDGALVQHQKWEGKESTITRKLKDGKMVVECVMNNAICTRVYEKVQ
- binding: binds
